# Assay results taken from the supplement of paper PMC8728848.
# The list shows a part of the results.
# B1: GroEL (Clostridium difficile), Q18CT5 (protein)
# chain: MAKEIKFSEETRRALEAGVNKLADTVKVTLGPKGRNVILDKKFGSPLITNDGVTIAKEIELEDRFENMGAQLVKEVATKTNDVAGDGTTTATVLAQAIIREGLKNVTAGANPILLRKGIQKAVTVAVEELKNQSRIVETQEAISQVASISAGDEEVGKLIAEAMEIVGKDGVITVEESQTMNTELDAVEGMQFDRGFVSAYMVTDVDKMEAVLNDPYILITDKKISNIQELLPVLEQIVQQGKKLLIIAEDVEGEALSTLVVNKLRGTFDVVAVKAPGFGDRRKEMLQDIAILTGAQVISEELGYDLKEADLSMLGRASSVKVTKESTTIVDGSGDKKAIEDRVTQIKHQVEQTTSDFDREKLMERLAKLAGGVAVVKVGAATEVELKERKLRIEDALNATRAAVEEGIVAGGGTAFVSVIPAIGTLIESLEGEVKLGAQIVKKALEEPLRQIAINAGLEGAVIVQNVVNSEAETGFDALNEKYVNMIEAGIVDPTKVSRSALQNAASIASTFLTTEAAVADLPEKEDAGMPGMGGGMPGMM
# Experiments:
# Experiment in all cases: glycan array binding signal (z-score within array); higher = stronger binding
# Settings in all cases: glycan notation: IUPAC condensed, linker removed
# Gal3S(b1-4)Glc6S = target: Gal3S(b1-4)Glc6S
# Procedure, shortened: (§1)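 Glycan array data came from 3228 arrays in the Consortium for Functional Glycomics database, and only arrays with an available protein sequence were kept. Glycan names were put into IUPAC-condensed notation, and columns mapping to the same glycan were averaged. The binding signal is a within-array Z-score, averaged across arrays of one protein sequence run at different concentrations or buffers and across linkers. A negative Z-score can be read as non-binding.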
# Gal3S(b1-4)GlcNAc = target: Gal3S(b1-4)GlcNAc
# Procedure, shortened: as §1
# [1] = target: Gal3S(b1-4)[Fuc(a1-3)]Glc6S
# Procedure, shortened: as §1
# [2] = target: Gal3S(b1-4)[Fuc(a1-3)]GlcNAc
# Procedure, shortened: as §1
# [3] = target: Gal3S(b1-4)[Fuc(a1-3)]GlcNAc6S
# Procedure, shortened: as §1
# Gal3S4S(b1-4)GlcNAc = target: Gal3S4S(b1-4)GlcNAc
# Procedure, shortened: as §1
# Gal3S6S(b1-4)GlcNAc = target: Gal3S6S(b1-4)GlcNAc
# Procedure, shortened: as §1
# Gal3S6S(b1-4)GlcNAc6S = target: Gal3S6S(b1-4)GlcNAc6S
# Procedure, shortened: as §1
# Gal4S(b1-4)GlcNAc = target: Gal4S(b1-4)GlcNAc
# Procedure, shortened: as §1
# Gal4S6S(b1-4)GlcNAc = target: Gal4S6S(b1-4)GlcNAc
# Procedure, shortened: as §1
# Gal6P(b1-4)GlcNAc = target: Gal6P(b1-4)GlcNAc
# Procedure, shortened: as §1
# Gal6S(b1-3)GlcNAc = target: Gal6S(b1-3)GlcNAc
# Procedure, shortened: as §1
# Gal6S(b1-3)GlcNAc6S = target: Gal6S(b1-3)GlcNAc6S
# Procedure, shortened: as §1
# Gal6S(b1-4)Glc = target: Gal6S(b1-4)Glc
# Procedure, shortened: as §1
# Gal6S(b1-4)Glc6S = target: Gal6S(b1-4)Glc6S
# Procedure, shortened: as §1
# Gal6S(b1-4)GlcNAc = target: Gal6S(b1-4)GlcNAc
# Procedure, shortened: as §1
# Gal6S(b1-4)GlcNAc6S = target: Gal6S(b1-4)GlcNAc6S
# Procedure, shortened: as §1
# GalNAc(a1-3)Gal = target: GalNAc(a1-3)Gal
# Procedure, shortened: as §1
# GalNAc(a1-3)GalNAc = target: GalNAc(a1-3)GalNAc
# Procedure, shortened: as §1
# [4] = target: GalNAc(a1-3)GalNAc(b1-3)Gal(a1-4)Gal(b1-4)Glc
# Procedure, shortened: as §1
# [5] = target: GalNAc(a1-3)GalNAc(b1-3)Gal(a1-4)Gal(b1-4)GlcNAc
# Procedure, shortened: as §1
# GalNAc(b1-3)Gal = target: GalNAc(b1-3)Gal
# Procedure, shortened: as §1
# [6] = target: GalNAc(b1-3)Gal(a1-4)Gal(b1-4)GlcNAc
# Procedure, shortened: as §1
# [7] = target: GalNAc(b1-3)Gal(a1-4)Gal(b1-4)GlcNAc(b1-3)Gal(b1-4)Glc
# Procedure, shortened: as §1
# [8] = target: GalNAc(b1-3)Gal(a1-6)Gal(b1-4)Glc
# Procedure, shortened: as §1
# GalNAc(b1-3)GalNAc = target: GalNAc(b1-3)GalNAc
# Procedure, shortened: as §1
# GalNAc(b1-3)GlcNAc = target: GalNAc(b1-3)GlcNAc
# Procedure, shortened: as §1
# GalNAc(b1-4)Gal(b1-4)Glc = target: GalNAc(b1-4)Gal(b1-4)Glc
# Procedure, shortened: as §1
# GalNAc(b1-4)GlcNAc = target: GalNAc(b1-4)GlcNAc
# Procedure, shortened: as §1
# [9] = target: GalNAc(b1-4)GlcNAc(b1-2)Man
# Procedure, shortened: as §1
# [10] = target: GalNAc(b1-4)GlcNAc(b1-2)Man(a1-3)[GalNAc(b1-4)GlcNAc(b1-2)Man(a1-6)]Man(b1-4)GlcNAc(b1-4)GlcNAc
# Procedure, shortened: as §1
# [11] = target: GalNAc(b1-4)GlcNAc(b1-3)GalNAc(b1-4)GlcNAc
# Procedure, shortened: as §1
# GalNAc(b1-4)GlcNAc6S = target: GalNAc(b1-4)GlcNAc6S
# Procedure, shortened: as §1
# GalNAc(b1-6)GalNAc = target: GalNAc(b1-6)GalNAc
# Procedure, shortened: as §1
# GalNAc3S(b1-4)GlcNAc = target: GalNAc3S(b1-4)GlcNAc
# Procedure, shortened: as §1
# GalNAc3S(b1-4)GlcNAc3S = target: GalNAc3S(b1-4)GlcNAc3S
# Procedure, shortened: as §1
# [12] = target: GalNAc3S(b1-4)[Fuc(a1-3)]GlcNAc
# Procedure, shortened: as §1
# GalNAc4S6S(b1-4)GlcNAc = target: GalNAc4S6S(b1-4)GlcNAc
# Procedure, shortened: as §1
# GalNAc6S(b1-4)GlcNAc = target: GalNAc6S(b1-4)GlcNAc
# Procedure, shortened: as §1
# Glc(a1-4)Glc = target: Glc(a1-4)Glc
# Procedure, shortened: as §1
# [13] = target: Glc(a1-4)Glc(a1-4)Glc(a1-4)Glc
# Procedure, shortened: as §1
# Glc(a1-6)Glc(a1-6)Glc = target: Glc(a1-6)Glc(a1-6)Glc
# Procedure, shortened: as §1
# [14] = target: Glc(a1-6)Glc(a1-6)Glc(a1-6)Glc
# Procedure, shortened: as §1
# Glc(b1-4)Glc = target: Glc(b1-4)Glc
# Procedure, shortened: as §1
# Glc(b1-6)Glc = target: Glc(b1-6)Glc
# Procedure, shortened: as §1
# GlcA(b1-3)Gal = target: GlcA(b1-3)Gal
# Procedure, shortened: as §1
# GlcA(b1-3)GlcNAc = target: GlcA(b1-3)GlcNAc
# Procedure, shortened: as §1
# GlcA(b1-6)Gal = target: GlcA(b1-6)Gal
# Procedure, shortened: as §1
# [15] = target: GlcA3S(b1-3)Gal(b1-4)GlcNAc(b1-2)Man
# Procedure, shortened: as §1
# [16] = target: GlcA3S(b1-3)Gal(b1-4)GlcNAc(b1-3)Gal(b1-4)Glc
# Procedure, shortened: as §1
# [17] = target: GlcNAc(a1-3)Gal(b1-4)GlcNAc
# Procedure, shortened: as §1
# [18] = target: GlcNAc(a1-4)Gal(b1-3)GlcNAc
# Procedure, shortened: as §1
# [19] = target: GlcNAc(a1-4)Gal(b1-4)GalNAc
# Procedure, shortened: as §1
# [20] = target: GlcNAc(a1-4)Gal(b1-4)GlcNAc
# Procedure, shortened: as §1
# [21] = target: GlcNAc(a1-4)Gal(b1-4)GlcNAc(b1-3)Gal(b1-4)Glc
# Procedure, shortened: as §1
# [22] = target: GlcNAc(a1-4)Gal(b1-4)GlcNAc(b1-3)Gal(b1-4)GlcNAc
# Procedure, shortened: as §1
# [23] = target: GlcNAc(a1-4)Gal(b1-4)GlcNAc(b1-3)Gal(b1-4)GlcNAc(b1-3)Gal(b1-4)GlcNAc
# Procedure, shortened: as §1
# [24] = target: GlcNAc(a1-4)Gal(b1-4)GlcNAc(b1-3)Gal(b1-4)[Fuc(a1-3)]GlcNAc(b1-3)Gal(b1-4)[Fuc(a1-3)]GlcNAc
# Procedure, shortened: as §1
# [25] = target: GlcNAc(a1-6)Gal(b1-4)GlcNAc
# Procedure, shortened: as §1
# [26] = target: GlcNAc(b1-2)Gal(b1-3)GalNAc
# Procedure, shortened: as §1
binder,measurement,setting,value
B1,glycan array binding signal (z-score),Gal3S(b1-4)Glc6S,1.8
same,glycan array binding signal (z-score),Gal3S(b1-4)GlcNAc,-0.238
same,glycan array binding signal (z-score),[1],3.51
same,glycan array binding signal (z-score),[2],-0.498
same,glycan array binding signal (z-score),[3],-0.072
same,glycan array binding signal (z-score),Gal3S4S(b1-4)GlcNAc,-0.674
same,glycan array binding signal (z-score),Gal3S6S(b1-4)GlcNAc,-0.083
same,glycan array binding signal (z-score),Gal3S6S(b1-4)GlcNAc6S,-0.281
same,glycan array binding signal (z-score),Gal4S(b1-4)GlcNAc,2.12
same,glycan array binding signal (z-score),Gal4S6S(b1-4)GlcNAc,0.611
same,glycan array binding signal (z-score),Gal6P(b1-4)GlcNAc,0.529
same,glycan array binding signal (z-score),Gal6S(b1-3)GlcNAc,-0.43
same,glycan array binding signal (z-score),Gal6S(b1-3)GlcNAc6S,0.137
same,glycan array binding signal (z-score),Gal6S(b1-4)Glc,0.357
same,glycan array binding signal (z-score),Gal6S(b1-4)Glc6S,0.294
same,glycan array binding signal (z-score),Gal6S(b1-4)GlcNAc,2.53
same,glycan array binding signal (z-score),Gal6S(b1-4)GlcNAc6S,-0.743
same,glycan array binding signal (z-score),GalNAc(a1-3)Gal,0.36
same,glycan array binding signal (z-score),GalNAc(a1-3)GalNAc,-0.959
same,glycan array binding signal (z-score),[4],-0.028
same,glycan array binding signal (z-score),[5],-1.13
same,glycan array binding signal (z-score),GalNAc(b1-3)Gal,-0.735
same,glycan array binding signal (z-score),[6],-0.558
same,glycan array binding signal (z-score),[7],-0.255
same,glycan array binding signal (z-score),[8],-0.691
same,glycan array binding signal (z-score),GalNAc(b1-3)GalNAc,-1.29
same,glycan array binding signal (z-score),GalNAc(b1-3)GlcNAc,0.238
same,glycan array binding signal (z-score),GalNAc(b1-4)Gal(b1-4)Glc,1.88
same,glycan array binding signal (z-score),GalNAc(b1-4)GlcNAc,-0.074
same,glycan array binding signal (z-score),[9],0.51
same,glycan array binding signal (z-score),[10],-0.749
same,glycan array binding signal (z-score),[11],-1.29
same,glycan array binding signal (z-score),GalNAc(b1-4)GlcNAc6S,0.139
same,glycan array binding signal (z-score),GalNAc(b1-6)GalNAc,-0.32
same,glycan array binding signal (z-score),GalNAc3S(b1-4)GlcNAc,1.21
same,glycan array binding signal (z-score),GalNAc3S(b1-4)GlcNAc3S,-1.1
same,glycan array binding signal (z-score),[12],-0.624
same,glycan array binding signal (z-score),GalNAc4S6S(b1-4)GlcNAc,-0.698
same,glycan array binding signal (z-score),GalNAc6S(b1-4)GlcNAc,2.3
same,glycan array binding signal (z-score),Glc(a1-4)Glc,-0.62
same,glycan array binding signal (z-score),[13],0.621
same,glycan array binding signal (z-score),Glc(a1-6)Glc(a1-6)Glc,0.436
same,glycan array binding signal (z-score),[14],-0.277
same,glycan array binding signal (z-score),Glc(b1-4)Glc,2.22
same,glycan array binding signal (z-score),Glc(b1-6)Glc,3.22
same,glycan array binding signal (z-score),GlcA(b1-3)Gal,-1.12
same,glycan array binding signal (z-score),GlcA(b1-3)GlcNAc,-1.19
same,glycan array binding signal (z-score),GlcA(b1-6)Gal,-0.633
same,glycan array binding signal (z-score),[15],-1.37
same,glycan array binding signal (z-score),[16],-0.624
same,glycan array binding signal (z-score),[17],0.513
same,glycan array binding signal (z-score),[18],0.903
same,glycan array binding signal (z-score),[19],-0.877
same,glycan array binding signal (z-score),[20],2.33
same,glycan array binding signal (z-score),[21],0.659
same,glycan array binding signal (z-score),[22],0.928
same,glycan array binding signal (z-score),[23],-0.447
same,glycan array binding signal (z-score),[24],-0.102
same,glycan array binding signal (z-score),[25],-0.498
same,glycan array binding signal (z-score),[26],-0.267
